Consider 61 compounds from ChEMBL document CHEMBL4303122, “Identification of potential treatments for COVID-19 through artificial intelligence-enabled phenomic analysis of human cells infected with SARS-CoV-2” (2020).

Whole data set: some 1,600 compounds, median “Hit score” near 0.13, cut for the highest 2% near 0.46. The list shows a part of the results. *1 amine or outer side, *2 acyl side, *3 side chain or, on linkers, in order; H or OH if unused. Where a SMILES comes first, the peptide text is derived from it. Bridges are numbered along the chain shown (N, C = ends). [ ]: non-standard residue; d: D form. The star is where a group is joined. pTerphenylCO(4''-OnC5H11) = CCCCCOc1ccc(-c2ccc(-c3ccc(C(=O)*)cc3)cc2)cc1; Orn(4R-OH,5R-OH) = O=C([C@H](C[C@@H](O)[C@@H](O)N[*:3])N[*:1])[*:2]; hTyr(3S-OH,4S-OH) = N[C@H](C(=O)O)[C@H](O)[C@@H](O)c1ccc(O)cc1; Pro(3S-OH,4S-Me) = C[C@H]1CN[C@H](C(=O)O)[C@H]1O; Hyp = O=C(O)[C@@H]1C[C@@H](O)CN1

The subject of this experiment is SARS-CoV-2. Put plainly: Antiviral activity against SARS-CoV-2 (USA-WA1/2020 strain) measured by imaging in HRCE cells at MOI 0.4 after 96 hrs (reported as hit score from 0-1 for on-disease vs off-disease activity: scores >0.6 considered hits). The format is functional, Homo sapiens.
As to `Cc1c(S(=O)(=O)[O-])oc2c1C(=O)C(=O)c1c-2ccc2c1CCCC2(C)C.[Na+]` [SODIUM TANSHINONE IIA SULFONATE], the Hit score was determined as 0.113.
The figure for `CO[C@@H]1[C@@H](OC(N)=O)[C@@H](O)[C@H](Oc2ccc3c(O)c(NC(=O)c4ccc(O)c(CC=C(C)C)c4)c(=O)oc3c2C)OC1(C)C` [NOVOBIOCIN] is 0.09215; for `N#Cc1cc2c(cc1[N+](=O)[O-])=NC(=O)C(=O)N=2` it is 0.1284; for `C#C[C@]1(O)CC[C@H]2[C@@H]3CCc4cc(O)ccc4[C@H]3CC[C@@]21C` [ETHINYL ESTRADIOL] it is 0.06314.
The figure for `NC(=O)c1cnc2[nH]ccc2c1N[C@@H]1[C@@H]2CC3C[C@H]1C[C@@](O)(C3)C2` [PEFICITINIB] is 0.009204; for `NNc1nncc2ccccc12` [HYDRALAZINE] it is 0.1818; for `CC(=O)OCC(CCn1cnc2cnc(N)nc21)COC(C)=O` [FAMCICLOVIR] it is 0.02613.
Next, `CN1CCN(c2c(F)cc3c(=O)c(C(=O)O)cn(CCF)c3c2F)CC1` [FLEROXACIN]: 0.1213; `COc1ccc(CCN(C)CCCC(C#N)(c2cc(OC)c(OC)c(OC)c2)C(C)C)cc1OC` (stereo unspecified) [GALLOPAMIL]: 0.1501; `C1CNCCN1` [PIPERAZINE]: 0.1799.
On to `CC(/C=C1\SC(=S)N(CC(=O)O)C1=O)=C\c1ccccc1`, for which the Hit score was 0.05307.
Next, `Cc1nc(=O)c2cc(CN(C)c3ccc(C(=O)N[C@@H](CCC(=O)O)C(=O)O)s3)ccc2[nH]1` [RALTITREXED]: 0.07535; `CN1CCN(CCCN2c3ccccc3Sc3ccc(Cl)cc32)CC1` [PROCHLORPERAZINE]: 0.01288.
The figure for `CNCC(O)c1ccc(OC(=O)C(C)(C)C)c(OC(=O)C(C)(C)C)c1` (stereo unspecified) [DIPIVEFRIN] is -0.2176; for `CN(C)c1cc(CNCC(C)(C)C)c(O)c2c1C[C@H]1C[C@H]3[C@H](N(C)C)C(O)=C(C(N)=O)C(=O)[C@@]3(O)C(O)=C1C2=O` [OMADACYCLINE] it is 0.1584.
For `CC(C)NC[C@@H](O)COc1cccc2ccccc12` [DEXPROPRANOLOL], the Hit score worked out at 0.4686.
The figure for `CCc1cn([C@H]2C[C@H](O)[C@@H](CO)O2)c(=O)[nH]c1=O` [EDOXUDINE] is 0.06754; for `O=c1[nH]c(=O)n(C2CCCO2)cc1F` (stereo unspecified) [TEGAFUR] it is 0.09063.
As for `O=C(CNc1cccc(Cl)c1)NC1CCCN(c2ncnc3[nH]ccc23)C1` (stereo unspecified), the Hit score came to 0.1071.
Compound `Cc1c(N(C)CS(=O)(=O)O)c(=O)n(-c2ccccc2)n1C` [METAMIZOLE] displayed a Hit score of 0.2295.
The figure for `CCO.C[C@H]1c2cccc(O)c2C(=O)C2=C(O)[C@]3(O)C(=O)C(C(N)=O)=C(O)[C@@H](N(C)C)[C@@H]3[C@@H](O)[C@@H]21.C[C@H]1c2cccc(O)c2C(=O)C2=C(O)[C@]3(O)C(=O)C(C(N)=O)=C(O)[C@@H](N(C)C)[C@@H]3[C@@H](O)[C@@H]21.Cl.Cl.O` [DOXYCYCLINE HYCLATE] is 0.07535.
Compound `C[C@H]1CNCCCN1S(=O)(=O)c1cccc2cncc(F)c12` returned a Hit score of 0.01241.
Next, `O=C(O)c1cc(-c2ccccc2)nc2ccccc12` [CINCHOPHEN]: 0.02527.
`[H]/C=C/[C@@]1(C)CC(=O)[C@]2(O)[C@@]3(C)[C@@H](O)CCC(C)(C)[C@@H]3[C@H](OC(=O)CCN(C)C)[C@H](OC(C)=O)[C@@]2(C)O1` had a Hit score of -0.001781.
Next, `CN(C)c1nc(N(C)C)nc(N(C)C)n1` [ALTRETAMINE]: 0.1959; `N[C@H](C(=O)O)[C@H](O)c1ccc(O)c(O)c1` [DROXIDOPA]: 0.07126.
On to `Cc1oc(=O)oc1COC(=O)C1=C([C@H]2CCCO2)S[C@@H]2[C@@H]([C@@H](C)O)C(=O)N12` [FAROPENEM MEDOXOMIL], for which the Hit score is on record as 0.000691.
As to `C=CC1=C(C(=O)O)N2C(=O)[C@@H](NC(=O)/C(=N\O)c3csc(N)n3)[C@H]2SC1`, the Hit score was found to be 0.1164.
The compound `COc1ccccc1OCC(O)CN1CCN(CC(=O)Nc2c(C)cccc2C)CC1` (stereo unspecified) [RANOLAZINE] yielded a Hit score of 0.1142.
On to `NC(=O)C(c1ccccc1)(c1ccccc1)[C@@H]1CCN(CCc2ccc3c(c2)CCO3)C1` [DARIFENACIN], for which the Hit score came out at 0.15.
`CCCNCC(O)COc1ccccc1C(=O)CCc1ccccc1` (stereo unspecified) [PROPAFENONE] came in with a Hit score of 0.2048.
In turn, `CCCCCCOC(=O)CCC(=O)CN` [HEXAMINOLEVULINATE] gave a Hit score of 0.1128.
With `CO/N=C(\C(=O)N[C@@H]1C(=O)N2C(C(=O)OCOC(=O)C(C)(C)C)=C(C)CS[C@H]12)c1csc(N)n1`, the Hit score is given as 0.2495.
The figure for `CC(=O)[C@H]1CC[C@H]2[C@@H]3CC[C@@H]4C[C@H](O)CC[C@]4(C)[C@H]3CC[C@]12C` [ELTANOLONE] is 0.1546; for `CCc1c(Cl)c(O)c(Cl)c(O)c1C(=O)O[C@H]1[C@H](O)[C@H](OC)[C@H](OC/C2=C\C=C\C[C@H](O)/C(C)=C/[C@H](CC)[C@@H](O[C@@H]3OC(C)(C)[C@@H](OC(=O)C(C)C)[C@H](O)[C@@H]3O)/C(C)=C/C(C)=C/C[C@@H]([C@@H](C)O)OC2=O)O[C@@H]1C` [FIDAXOMICIN] it is 0.1058.
The figure for `OC[C@H]1O[C@@H](Oc2cc(O)cc(/C=C/c3ccc(O)cc3)c2)[C@H](O)[C@@H](O)[C@@H]1O` [PICEID] is 0.1094; for `CC(SC(=O)c1cccs1)C(=O)NCC(=O)O` (stereo unspecified) [STEPRONIN] it is 0.2404.
The figure for `CCOC(=O)[C@H](CCc1ccccc1)N[C@H]1CS[C@H](c2cccs2)CN(CC(=O)O)C1=O` [TEMOCAPRIL] is 0.08409; for `C#C[C@]1(OC(C)=O)CC[C@H]2[C@@H]3CCC4=CC(=O)CC[C@@H]4[C@H]3CC[C@@]21C` [NORETHINDRONE ACETATE] it is 0.06494.
In turn, `O=C1OCCN1/N=C/c1ccc([N+](=O)[O-])o1` [FURAZOLIDONE] showed a Hit score of 0.1034.
Next, `NC(=O)c1ccc([N+](=O)[O-])cc1Cl` [AKLOMIDE]: 0.1103; `C[n+]1ccc(C(=O)NCc2ccccc2)cc1.[I-]` [ENISAMIUM IODIDE]: -0.002396.
Next, `c1ccc([C@H]2CN3CCSC3=N2)cc1` [LEVAMISOLE]: 0.1084; `C[C@@H]1C[C@H]2[C@@H]3C[C@H](F)C4=CC(=O)C=C[C@]4(C)[C@@]3(Cl)[C@@H](O)C[C@]2(C)[C@H]1C(=O)COC(=O)C(C)(C)C` [CLOCORTOLONE PIVALATE]: 0.2781; `CN1C[C@@H]2C[C@H]1CN2c1cc2c(cc1F)c(=O)c(C(=O)O)cn2C1CC1.CS(=O)(=O)O` [DANOFLOXACIN MESYLATE]: 0.01486.
Next, `Cc1c(O)c(=O)ccn1C` [DEFERIPRONE]: 0.04593; `O=[N+]([O-])c1cc([As](=O)(O)O)ccc1O` [ROXARSONE]: 0.1196; `N#Cc1ccnc(N2C(=O)CC[C@H]2C(=O)N(c2cncc(F)c2)[C@H](C(=O)NC2CC(F)(F)C2)c2ccccc2Cl)c1` [IVOSIDENIB]: 0.2722.
The compound `CNC(=O)c1cnn(-c2nc(N)c3ncn([C@@H]4O[C@H](CO)[C@@H](O)[C@H]4O)c3n2)c1` [REGADENOSON ANHYDROUS] yielded a Hit score of 0.115.
`Nc1ccc(S(=O)(=O)Nc2ccnn2-c2ccccc2)cc1` [SULFAPHENAZOLE] gave a Hit score of 0.09169.
On to `CCN(C)C(=O)Oc1cccc([C@H](C)N(C)C)c1` [RIVASTIGMINE], for which the Hit score came out at 0.08962.
The compound `O=C(NCC(O)CO)c1c(I)c(C(=O)NCC(O)CO)c(I)c(N(CCO)C(=O)CO)c1I` (stereo unspecified) [IOVERSOL] gave a Hit score of 0.06195.
Compound `CCCCCC(=O)O[C@]1(C(C)=O)CC[C@H]2[C@@H]3CCC4=CC(=O)CC[C@]4(C)[C@H]3CC[C@@]21C` [HYDROXYPROGESTERONE CAPROATE] registered a Hit score of 0.1371.
Next, `COc1cc(C)c2c(Oc3cccc(C(F)(F)F)c3)c(OC)cc(NC(C)CCCN)c2n1.O=C(O)CCC(=O)O` (stereo unspecified) [TAFENOQUINE SUCCINATE]: 0.101; `O=C1CC2(CCCC2)CC(=O)N1CCCCN1CCN(c2ncccn2)CC1` [BUSPIRONE]: 0.1391.
In the case of `c1ccc(OCc2ccc(CCCN3CCOCC3)cc2)cc1` [FOMOCAINE], the Hit score is recorded as 0.05308.
Next, `C[C@H](C(=O)O)c1ccc(-c2ccccc2)c(F)c1` [ESFLURBIPROFEN]: 0.1907; `N#Cc1cc(-c2n[nH]c(-c3ccncc3)n2)ccn1` [TOPIROXOSTAT]: -0.01483; `CCCCCOc1ccc(-c2ccc(-c3ccc(C(=O)N[C@H]4C[C@@H](O)[C@@H](O)NC(=O)[C@@H]5[C@@H](O)[C@@H](C)CN5C(=O)[C@H]([C@@H](C)O)NC(=O)[C@H]([C@H](O)[C@@H](O)c5ccc(O)cc5)NC(=O)[C@@H]5C[C@@H](O)CN5C(=O)[C@H]([C@@H](C)O)NC4=O)cc3)cc2)cc1` [ANIDULAFUNGIN] ({pTerphenylCO(4''-OnC5H11)}-[Orn(4R-OH,5R-OH)]T[Hyp][hTyr(3S-OH,4S-OH)]T[Pro(3S-OH,4S-Me)]; lactam 1-C): 0.1907.
The figure for `COC(=O)N(C)c1c(N)nc(-c2nn(Cc3ccccc3F)c3ncccc23)nc1N` [RIOCIGUAT] is 0.2213; for `C[C@H](CSC(=O)c1ccccc1)C(=O)N1C[C@@H](Sc2ccccc2)C[C@H]1C(=O)[O-].C[C@H](CSC(=O)c1ccccc1)C(=O)N1C[C@@H](Sc2ccccc2)C[C@H]1C(=O)[O-].[Ca+2]` [ZOFENOPRIL CALCIUM] it is 0.2305.
